We go through 63 molecules from PubChem BioAssay AID493014 (National Center for Advancing Translational Sciences (NCATS), 2011).

Several values for one entry are separate records, joined by “and”; a condition that tells them apart may be missing. Equal entries are not always repeated. Some of the results follow. The main result of the screen is listed elsewhere. These columns were measured beside it and carry no call. The list favours compounds with an active or inconclusive main result. The note in brackets gives the kind of curve behind each potency; many fits are weak.

A short description of the assay: qHTS Assay to Find Inhibitors of Chronic Active B-Cell Receptor Signaling. Particulars: ABC-DLBCL IkBa-CBG/CBR reporter, luminescence ratio (green luciferase fused to IkBa over red control in TMD8 lymphoma cells), 4 h. The procedure, abridged: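 Doxycycline induced both beetle luciferases in TMD8 lymphoma cells; IKK-driven degradation limits the IkappaBalpha-fused green signal, while red luminescence normalises for cell number and nonspecific effects. Compounds tested up to 46 uM, 4 hrs.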

Setting [1] is: measured here: CBR red luminescence, cell number.

The AC50 is the concentration at which the activity in the assay is half-maximal.

Take `O=C(/C=C/c1ccco1)Nc1cccnc1`: under setting [1], the half-maximal activity concentration (AC50) was 35.5 µM [falling, single point].

For `CSc1nnc(-c2ccc(O)cc2)n1C`, the concentration at half-maximal activity (AC50) under setting [1] is 3.98 µM [rising, full curve, poor fit].

Consider `O=C(COc1cccc2ccccc12)N1c2ccccc2CCc2ccccc21`, for which the AC50 under setting [1] is 12.6 µM [falling, partial curve, poor fit].

As for `CCCCNC(=O)[C@@](CC)(ONc1ccccc1C(F)(F)F)c1cccc2ccccc12`, the AC50 under setting [1] is 6.51 µM [rising, full curve, poor fit].

For `Cc1cc(OCc2cc(C(=O)N3CCCCCC3)no2)cc(C)c1Cl`, under setting [1], the AC50 was 6.31 µM [rising, single point].

`O=C(O)CSc1cccc2cccnc12`: under setting [1], the AC50 is 1.46 µM [rising, partial curve].

Take `c1ccc(-c2noc(-c3ccc4ccccc4c3)n2)nc1`: the concentration at half-maximal activity (AC50) under setting [1] is 1.3 µM [falling, full curve].

Regarding `O=C(C1CCN(S(=O)(=O)c2ccc(Br)s2)CC1)N1CCN(C2CCCCC2)CC1`, the AC50 under setting [1] is 35.5 µM [falling, single point].

For the molecule `CCNC(=O)CN(c1ccc(Oc2ccccc2)cc1)S(=O)(=O)c1ccccc1`, the AC50 under setting [1] is 6.31 µM [rising, partial curve, poor fit].

For the molecule `O=C(COc1ccccc1[N+](=O)[O-])Nc1ccc(N2CCN(C(=O)c3cccs3)CC2)cc1`, the AC50 under setting [1] was 17.8 µM [falling, single point].

Turning to `O=C(C[C@H]1C[C@H](C(=O)N2CCCCC2)[C@@]2(CCc3ccccc3)c3[nH]c4ccc(Cl)cc4c3CCN2C1=O)NCCC1=CCCCC1`, the AC50 under setting [1] is 4.11 µM [rising, full curve, poor fit].

Regarding `Cc1occc1C(=O)Nc1cccc2ccccc12`, under setting [1], the AC50 is 18.4 µM [falling, partial curve, poor fit].

Turning to `CC(C)(C)c1ccc(Cn2nnc3c(=O)[nH]c(C4CCCN(C(=O)Cc5cccs5)C4)nc32)cc1` (centres undefined), the AC50 under setting [1] was 17.8 µM [falling, single point].

As for `O=C(COc1ccc2c(-c3ccccc3)cc(=O)oc2c1)NCCCN1CCOCC1`, the AC50 under setting [1] was 14.1 µM [rising, single point].

As for `CN=C1S/C(=C\c2ccc(N3CCOCC3)c(F)c2)C(=O)N1C`, under setting [1], the AC50 is 23.1 µM [rising, single point].

As to `CC(=O)C1=C(C)OC2(O)c3ccccc3C(=O)C12O` (centres undefined), the AC50 under setting [1] is 15.8 µM [rising, single point].

On to `COc1ccc(C(=O)C2CCCN(C(=O)CCc3scnc3C)C2)c(C)c1` (centres undefined), for which the half-maximal activity concentration (AC50) under setting [1] was 7.08 µM [falling, partial curve, poor fit].

`Cc1cc(C)c(C#N)c(SCc2nnc(-c3ccccc3[N+](=O)[O-])o2)n1`: the AC50 under setting [1] is 1.41 µM [rising, partial curve, poor fit].

Take `C/C(=N\NC(=O)COc1ccccc1[N+](=O)[O-])c1cccc(NC(=O)c2ccncc2)c1`: under setting [1], the AC50 was 1.12 µM [falling, partial curve].

For the molecule `CC(C)CC(=O)NCCCN1CCN(CCCNC(=O)CC(C)C)CC1`, under setting [1], the AC50 is 23.1 µM [rising, single point].

With `CCOC(=O)C1=C(O)C(=O)N(Cc2cccnc2)C1c1ccc(C)cc1` (centres undefined), the AC50 under setting [1] is 10 µM [rising, partial curve, poor fit].

`O=C(NCc1ccco1)C(=O)NCc1ccccc1Cl`: the AC50 under setting [1] was 18.4 µM [falling, partial curve].

Consider `S=C(Nc1ccccc1)Nc1ccc2cn[nH]c2c1`, for which the AC50 under setting [1] was 35.5 µM [falling, single point].

In the case of `CCOc1ccc(-n2cc(-c3ccccc3)c3c(=S)nc[nH]c32)cc1`, the AC50 under setting [1] is 14.1 µM [rising, single point].

On to `OCC#CCSc1nnc(-c2ccncc2)o1`, for which the AC50 under setting [1] is 0.00517 µM [falling, full curve, poor fit].

Turning to `C=CCn1c(N)cc(=O)nc1SCC(=O)N(c1ccccc1)c1ccccc1`, under setting [1], the half-maximal activity concentration (AC50) is 15.8 µM [rising, partial curve, poor fit].

In the case of `Cn1c(=O)n(C)c2cc(NC(=O)c3ccccc3NS(C)(=O)=O)ccc21`, under setting [1], the AC50 is 22.4 µM [falling, partial curve, poor fit].

For the molecule `CC(=O)[C@H]1CC[C@H]2[C@@H]3CCC4=CC(=O)CC[C@]4(C)[C@H]3CC[C@]12C`, the AC50 was 3.26 µM [rising, partial curve, poor fit] and 29.1 µM [rising, partial curve, poor fit] under setting [1]; 5.17 µM [falling, full curve, poor fit] (measured here: IkBa-CBG green luminescence).

Take `Cc1ccc(/C=N/NC(=O)c2ccc(Br)o2)s1`: the AC50 under setting [1] was 29.1 µM [falling, single point].

On to `COc1ccc(Nc2cc(C(=O)NCCCN3CCN(C)CC3)c3ccccc3n2)cc1`, for which the AC50 under setting [1] was 11.2 µM [falling, partial curve].

For the molecule `Cc1ccc(NC(=O)c2ccc(NS(=O)(=O)c3c(C)noc3C)cc2)cc1C`, the AC50 under setting [1] was 29.1 µM [falling, single point].

Take `CC(=O)O/N=C1\C(=O)N(Cc2ccc(C)cc2)c2ccccc21`: the AC50 under setting [1] is 0.1 µM [falling, full curve, poor fit].

With `Cc1cccc(-n2cnc3cc(C(=O)NC4CCCCCC4)ccc32)c1`, the AC50 under setting [1] is 5.62 µM [rising, full curve, poor fit].

For the molecule `O=C(OCC(=O)N1CCc2ccccc21)c1ccncc1`, the AC50 under setting [1] is 0.58 µM [falling, full curve, poor fit].

For `O=C(CCCNS(=O)(=O)c1cccc2nsnc12)NC1CCCCC1`, under setting [1], the AC50 is 22.4 µM [falling, single point].

In the case of `CO[C@@H]1O[C@@H]2COC(c3ccccc3)O[C@@H]2[C@@H](OC)[C@@H]1O` (some centres undefined), under setting [1], the AC50 was 1.12 µM [rising, partial curve, poor fit].

With `COc1cc(C(=O)NNC(=O)c2ccc3ccccc3n2)cc(OC)c1OC`, the AC50 under setting [1] is 14.6 µM [rising, partial curve].

Consider `COc1ccc2c(CC(=O)Nc3ccc(OC)c(NS(=O)(=O)c4ccc(F)cc4)c3)coc2c1`, for which, under setting [1], the AC50 is 20.6 µM [falling, single point].

For the molecule `NC(=O)Nc1ccc(C(=O)OCC(=O)NC2CCCc3ccccc32)cc1` (centres undefined), the AC50 under setting [1] was 0.92 µM [rising, full curve, poor fit].

`Cc1cc(C)c(OCC(=O)N/N=C/c2ccco2)c(C)c1`: the AC50 under setting [1] was 25.9 µM [rising, single point].

Regarding `CCNc1nc(CN2CCOCC2)nc2sc3c(c12)CCC3`, the AC50 under setting [1] is 20.6 µM [rising, single point].

For the molecule `O=C(c1sc2ccccc2c1Cl)N(Cc1ccccc1)C1CCS(=O)(=O)C1` (centres undefined), the AC50 under setting [1] was 0.0891 µM [rising, full curve, poor fit].

Consider `CC(Oc1ccccc1)c1ccnn1S(C)(=O)=O` (centres undefined), for which the AC50 under setting [1] was 20.6 µM [rising, single point].

Turning to `COc1ccc(CC(NC(C)=O)C(=O)NC2CCN(S(=O)(=O)c3ccc(NC(C)=O)cc3)CC2)cc1OC` (centres undefined), the half-maximal activity concentration (AC50) under setting [1] is 1 µM [rising, full curve, poor fit].

For `O=C(NC1CCCCC1)c1ccc(N2CCCC2=O)cc1`, the AC50 under setting [1] was 20 µM [falling, partial curve, poor fit].

As to `CCOC(=O)C(=O)Nc1ccc(OC)c(Cl)c1`, the AC50 under setting [1] was 14.1 µM [rising, partial curve, poor fit].

For `Nc1c(C(=O)Nc2ccccc2)sc2nc(-c3ccco3)ccc12`, the AC50 under setting [1] was 10 µM [falling, partial curve].

As for `CCn1cnc2cc(NC(=O)c3ccco3)ccc21`, the AC50 under setting [1] was 10.3 µM [falling, partial curve, poor fit].

Regarding `CCCNC(=O)CS(=O)Cc1nc(-c2ccccc2C)oc1C` (centres undefined), the AC50 under setting [1] is 6.51 µM [rising, single point].

As to `COC(=O)[C@@H]1CCCN1C(=O)CCc1nnc(CCc2c[nH]c3ccccc23)o1`, the AC50 under setting [1] was 1 µM [rising, full curve, poor fit].

Consider `Cc1ccc(OCC(=O)NC(=S)Nc2cccc(NC(=O)c3ccccc3)c2)cc1`, for which the AC50 under setting [1] was 8.2 µM [falling, partial curve, poor fit].

`O=C(Nc1ccc(Br)cn1)C1CCN(S(=O)(=O)c2cccs2)CC1`: under setting [1], the AC50 is 0.708 µM [rising, full curve, poor fit].

Regarding `COc1cccc(C(=O)Nc2nnc(-c3ccccc3)s2)c1`, the AC50 under setting [1] was 2.82 µM [falling, full curve].

Take `O=C(Nc1ccc(N2CCOCC2)cc1)C1CCN(S(=O)(=O)Cc2ccccc2)CC1`: under setting [1], the AC50 was 0.259 µM [rising, full curve, poor fit].

As for `O=C(Cn1c(-c2ccccc2)c[n+]2ccsc12)c1ccccc1`, the AC50 under setting [1] was 3.55 µM [rising, partial curve, poor fit].

On to `Cc1c(Cl)cccc1NC(=O)c1cc(-c2ccco2)on1`, for which the AC50 under setting [1] is 0.316 µM [falling, full curve, poor fit].

As to `COc1ccc2nc(NC(=O)c3cccnc3SC)sc2c1`, the AC50 under setting [1] is 9.2 µM [falling, partial curve, poor fit].

Regarding `COc1ccc(S(=O)(=O)N(CC(=O)NC2CCCC2)c2ccccc2OC)cc1`, the AC50 under setting [1] was 15.8 µM [falling, single point].

As to `Cc1c(C(=O)Nc2ccc(-c3nnc4n3CCCCC4)cc2)oc2ccc(Br)cc12`, the AC50 under setting [1] was 3.66 µM [falling, partial curve, poor fit].

For `O=C(OCc1cccc(F)c1)c1cc2ccccc2cc1O`, under setting [1], the AC50 is 11.2 µM [rising, partial curve, poor fit].

In the case of `CN1CCN(S(=O)(=O)c2cccc(C(=O)Nc3nc(-c4ccccc4)cs3)c2)CC1`, under setting [1], the AC50 is 2.91 µM [falling, partial curve, poor fit].

Regarding `COc1cccc(CNc2ccccc2O)c1OCc1ccccc1F`, the AC50 under setting [1] is 10 µM [falling, partial curve].

For the molecule `CCn1nc(NS(=O)(=O)c2ccc(NC(C)=O)cc2)c2cc3ccccc3nc21`, under setting [1], the AC50 was 14.1 µM [falling, single point].
